# Results reported in patent US20110159304A1, “ANTI-SULPHATE REDUCING BACTERIA COMPOSITION COMPRISING 1,2-BENZISOTHIAZOL-3(2H)-ONE, IRGASAN, BENZYL-2-BROMOACETATE, 2,2-DIBROMO-2-CYANOACETAMIDE, AND 2-BROMO-2-NITROPROPAN-1,3-DIOL” (KOREA GAS CORPORATION, priority 2009, published 2011).
# At least one read-out could not be matched to a standard name with certainty. Some of these results come from one statement about several compounds together.
# System: Desulfovibrio desulfuricans KCTC 5786
# Assay: Antibacterial activity evaluation, paper disk clear zone and MIC
# Assay type: cell-based
# Conditions: paper disk test, concentrations 1.0-0.001%, 37° C.
# Description: Desulfovibrio desulfuricans KCTC 5786 was used as a test sulphate reducing bacteria strain.
# The all materials used in the test, disk paper, medium and so on, were sterilized for 15 min at 121° C. Bacteria's culture and antibacterial activity test were performed in an anaerobic chamber (Anaerobic System, Form a Sci; condition maintaining not more than 5 ppm of oxygen concentration).
# After culturing the test strain for not less than 3 days, the volume of the culture was adjusted to 10^5-7/mL to prepare for plating it on Desulfovibrio medium, and the test compounds were resolved in a suitable solvent for use (ethanol for lipid soluble compounds, and distilled water for water soluble compounds).
# The experiment proceeded with varying the concentration of the compounds used in the experiment to 1.0%, 0.1%, 0.01%, and 0.001%. The 8 mm of a paper disk was placed on the plate prepared by plating the culture, and were inoculated with 50 μl of various concentrations of the compound. After culturing the strain for 24, and 48 hrs at 37° C., the clear zone (mm) representing antibacterial activity was measured and Minimum Inhibitory Concentration (MIC) was determined.
structure (smiles),measurement,setting,value
"Oc1cc(Cl)ccc1Oc1ccc(Cl)cc1Cl [Irgasan, irgasan]",MIC minimum inhibitory concentration,,0.01%
same,MIC minimum inhibitory concentration,listed as irgasan,less than 0.01%
